This assay concerns the target T1, GST-KCBP (Arabidopsis thaliana) (UniProt Q9FHN8).
T1 sequence: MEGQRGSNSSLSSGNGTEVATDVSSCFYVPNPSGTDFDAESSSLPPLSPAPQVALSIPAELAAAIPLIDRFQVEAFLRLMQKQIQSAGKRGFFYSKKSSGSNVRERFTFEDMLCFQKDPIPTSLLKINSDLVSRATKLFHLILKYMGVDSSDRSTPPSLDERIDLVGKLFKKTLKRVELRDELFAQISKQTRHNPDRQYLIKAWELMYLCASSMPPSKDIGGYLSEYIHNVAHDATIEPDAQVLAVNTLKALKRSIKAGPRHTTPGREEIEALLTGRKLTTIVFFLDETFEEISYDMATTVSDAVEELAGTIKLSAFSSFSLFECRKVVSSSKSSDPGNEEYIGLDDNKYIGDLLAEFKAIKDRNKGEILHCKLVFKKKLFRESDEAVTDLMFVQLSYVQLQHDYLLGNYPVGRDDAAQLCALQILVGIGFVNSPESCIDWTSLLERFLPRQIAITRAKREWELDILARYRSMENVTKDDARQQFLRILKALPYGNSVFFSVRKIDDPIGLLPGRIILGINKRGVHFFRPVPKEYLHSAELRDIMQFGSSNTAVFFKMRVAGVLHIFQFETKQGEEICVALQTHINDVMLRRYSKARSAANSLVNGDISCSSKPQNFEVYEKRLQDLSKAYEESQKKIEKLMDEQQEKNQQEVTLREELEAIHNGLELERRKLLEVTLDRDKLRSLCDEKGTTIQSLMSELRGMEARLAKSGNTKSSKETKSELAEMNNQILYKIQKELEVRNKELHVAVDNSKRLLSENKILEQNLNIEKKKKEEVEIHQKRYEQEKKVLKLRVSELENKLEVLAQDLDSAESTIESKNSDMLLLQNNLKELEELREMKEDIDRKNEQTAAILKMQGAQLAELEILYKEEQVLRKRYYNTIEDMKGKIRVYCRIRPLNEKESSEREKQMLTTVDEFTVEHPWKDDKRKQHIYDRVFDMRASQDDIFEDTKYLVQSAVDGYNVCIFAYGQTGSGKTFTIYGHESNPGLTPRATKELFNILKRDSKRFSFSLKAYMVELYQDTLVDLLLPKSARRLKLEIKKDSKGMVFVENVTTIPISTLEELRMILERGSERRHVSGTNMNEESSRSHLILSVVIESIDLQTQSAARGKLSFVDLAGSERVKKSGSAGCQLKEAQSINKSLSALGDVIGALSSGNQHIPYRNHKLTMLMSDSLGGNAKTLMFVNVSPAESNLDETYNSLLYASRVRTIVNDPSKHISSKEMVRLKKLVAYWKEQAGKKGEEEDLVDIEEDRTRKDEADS
Nature of the assay: pull-down; bacterial lysate with ~20 ug GST-KCBP mixed with lysate with ~15 ug MBP-TCS1 or MBP; Glutathione Sepharose 4B, 4 C, 1 h; washed five times with TGH buffer; anti-MBP immunoblot. Background: A western blot detects proteins with antibodies after separation by electrophoresis.

The chains behind the UniProt entries cited, without tags or fusion partners. Where a name states a change or a piece, a line headed by the entry shows the natural chain unless it says otherwise.
UniProt Q0WSY2: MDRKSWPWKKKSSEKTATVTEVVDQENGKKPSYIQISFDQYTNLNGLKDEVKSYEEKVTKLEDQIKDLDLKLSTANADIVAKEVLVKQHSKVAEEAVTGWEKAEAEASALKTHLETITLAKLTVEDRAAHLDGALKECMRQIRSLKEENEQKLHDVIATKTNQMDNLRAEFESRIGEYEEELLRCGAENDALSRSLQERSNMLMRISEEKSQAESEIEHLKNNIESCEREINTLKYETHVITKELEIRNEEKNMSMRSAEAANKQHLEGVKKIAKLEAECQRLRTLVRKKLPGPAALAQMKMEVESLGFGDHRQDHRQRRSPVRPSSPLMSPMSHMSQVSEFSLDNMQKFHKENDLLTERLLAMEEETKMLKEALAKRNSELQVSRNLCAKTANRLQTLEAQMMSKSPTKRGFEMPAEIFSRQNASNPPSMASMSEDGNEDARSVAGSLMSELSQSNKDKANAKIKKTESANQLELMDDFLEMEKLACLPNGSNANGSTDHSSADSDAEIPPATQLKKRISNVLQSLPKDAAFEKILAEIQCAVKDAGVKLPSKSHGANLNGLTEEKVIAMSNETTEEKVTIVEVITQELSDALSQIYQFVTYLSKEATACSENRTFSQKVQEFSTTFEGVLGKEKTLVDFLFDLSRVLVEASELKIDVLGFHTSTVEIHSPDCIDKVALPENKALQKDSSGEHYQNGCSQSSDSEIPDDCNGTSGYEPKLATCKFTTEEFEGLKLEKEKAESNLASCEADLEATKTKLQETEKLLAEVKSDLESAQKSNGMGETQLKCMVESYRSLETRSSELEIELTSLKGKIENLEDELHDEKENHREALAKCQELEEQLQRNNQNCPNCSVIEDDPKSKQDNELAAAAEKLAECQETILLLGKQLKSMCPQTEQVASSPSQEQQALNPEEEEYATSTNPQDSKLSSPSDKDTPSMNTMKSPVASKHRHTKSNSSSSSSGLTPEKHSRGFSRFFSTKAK

These are yes or no findings as the source states them, for the method shown. Binding seen in cells or lysates may run through a third protein. Binding can be weak; no strength is given. Where a sequence is shown, tags or fusion partners need not be part of it.

Turning to “MBP-TCS1 (TRICHOME CELL SHAPE 1 fused to maltose binding protein) (from UniProt Q0WSY2)”, the binding entry is “binds”.

These data come from publication PMC5074588.
